# Data reported in PubChem BioAssay AID624291 (National Center for Advancing Translational Sciences (NCATS), 2012).
# Out of some 350,000 compounds screened, about 220 (0.063%) were called active. The inconclusive results got no clear call from the source; some entries with a clear call stand among them for comparison. Calls come from the whole dose curve; as a rule, active = well fitted activation curve with a large enough effect; inconclusive = small, poorly fitted or top-dose-only effect; inactive = no such curve, though single readings can be large or run the other way. Where the call is inconclusive, the potency comes from a doubtful curve fit.
# Assay: qHTS for Activators of Integrin-Mediated Alleviation for Muscular Dystrophy; note: nearly all actives have a fitted effect of over 60% in size;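 for activation: 100% = response of the positive control SU9516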
# Settings: alpha7betagal myoblasts, beta-gal FDG fluorescence, 48 h; activation: at 38.3 µM (top of the series)
# Summary of the method: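 alpha7betagal+/- myoblasts (passage 13, 250/well) treated 48 h at 37C with compounds at 1:260 dilution of DMSO stock. Lysed, then beta-galactosidase activity read as FDG fluorescence (ex 480/em 540) after 30 min, with pre-read for autofluorescence.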
# Potency is the fitted concentration of half-maximal effect.
Compound,Potency,activation
O=C(/C=C/c1ccc2c(c1)OCO2)c1ccc(O)cc1O,inactive,–
O=C(COc1ccc2c(c1)OCO2)Nc1nccs1,"inconclusive: 11.2 µM [activator, single point]",–
c1ccc(-c2noc(-c3ccc4c(c3)OCO4)n2)cc1,"inconclusive: 3.55 µM [activator, single point]",–
CCOc1ccc(CCNC(=O)C2CC(=O)N(C3CCCC3)C2)cc1OCC (stereo not given),inactive,–
O=C(COc1cc2oc(=O)c3c(c2cc1Cl)CCC3)Nc1ccc(CN2CCOCC2)cc1,–,inconclusive: 38.5% [activator]
O=C(NCCc1ccc(Cl)cc1)c1ccc(Br)s1,"inconclusive: 14.1 µM [activator, single point]",–
CC(C)CNC(=O)C1CCCN(C(=O)NCc2ccccc2)C1 (stereo not given),"inconclusive: 28.2 µM [activator, single point]",–
CCN1CCc2c(sc(N)c2C#N)C1,inactive,–
Cc1ccc(/C(N)=N/OC(=O)c2ccc3c(c2)OCO3)cc1,inactive,–
CC(=O)N1c2ccccc2Sc2ccccc21,"inconclusive: 22.4 µM [activator, partial curve, poor fit]",–
CCCOC(=O)C1=C(C)NC2=C(C(=O)CCC2)C1c1cc(OC)ccc1OC (stereo not given),"inconclusive: 0.891 µM [activator, full curve, poor fit]",–
Cc1cccc(NC(=O)/C(C#N)=C/c2ccc(Sc3ccccc3)o2)c1C,"inconclusive: 5.01 µM [activator, single point]",–
COc1cccc2cc(/C(C)=N/NC(=O)c3ccco3)oc12,"inconclusive: 1.12 µM [activator, partial curve, poor fit]",–
CC1CC(C)CN(S(=O)(=O)c2ccc3c(c2)CC(C)N3C(=O)C2CCC2)C1 (stereo not given),"inconclusive: 0.501 µM [activator, partial curve, poor fit]",–
COc1ccc(Cl)cc1NC(=O)NCCCl,"inconclusive: 28.2 µM [activator, single point]",–
CCOc1ccccc1-n1c(C)cc(C=O)c1C,"inconclusive: 22.4 µM [activator, partial curve, poor fit]",–
COc1ccccc1C(=O)NC(C)c1ccccc1 (stereo not given),inactive,–
COc1ccc(-c2cc(C(=O)Nc3cc(S(=O)(=O)N4CCOCC4)ccc3N3CCOCC3)c3ccccc3n2)cc1,"inconclusive: 2 µM [activator, full curve, poor fit]",–
N#C/C(=C\c1c[nH]c2ccccc12)C(=O)NC1CCCC1,–,inconclusive: 23.3% [activator]
O=C1c2ccccc2C(=O)N1CC(=O)N1c2ccccc2Sc2ccc(C(F)(F)F)cc21,"inconclusive: 3.55 µM [activator, partial curve, poor fit]",–
CCOc1ccc(N2C(=O)CC(NC3CCN(C(=O)c4cccs4)CC3)C2=O)cc1 (stereo not given),"inconclusive: 2.51 µM [activator, full curve, poor fit]",–
CC(=O)Nc1ccc(OCCOc2ccc(NC(C)=O)cc2)cc1,"inconclusive: 0.316 µM [activator, full curve, poor fit]",–
O=C(CCC(=O)OCC(F)(F)C(F)F)Nc1ccccc1F,"inconclusive: 15.8 µM [activator, partial curve, poor fit]",–

Compound,Potency,activation
CC(OC(=O)c1ccc(Cl)nc1)C(=O)NC1CCCC1 (stereo not given),"inconclusive: 1.78 µM [activator, partial curve, poor fit]",–
CCN(CC)c1ccc(NC2CC(=O)N(CCc3ccc(OC)cc3)C2=O)cc1 (stereo not given),inactive,–
O=C(Cn1cnc2c(nnn2Cc2ccc(F)cc2)c1=O)Nc1ccc2c(c1)OCCO2,"inconclusive: 5.01 µM [activator, single point]",–
CC1CCc2c(C(=O)Nc3ccccn3)csc2C1 (stereo not given),"inconclusive: 2.51 µM [activator, single point]",–
C=CCn1c(SC)nnc1C1COc2ccccc2O1 (stereo not given),"inconclusive: 28.2 µM [activator, single point]",–
COc1cc(NC(=O)c2cc(C)no2)c(OC)cc1Cl,"inconclusive: 28.2 µM [activator, single point]",–
Cc1c(Cl)cccc1NC(=S)N1CCc2ccccc2C1,inactive,–
Cc1cccc(OCc2n[nH]c(=S)n2C2CCCCC2)c1,inactive,–
Fc1cccc(Nc2nc3ccccc3n3cnnc23)c1,"inconclusive: 1.58 µM [activator, partial curve, poor fit]",–
Cn1ncc2c(NNC(=O)c3ccc(O)cc3)ncnc21,"inconclusive: 28.2 µM [activator, single point]",–
Cc1cc(NC(=O)NC(=O)c2cccc(OC(F)(F)C(F)F)c2)n[nH]1,inactive,–
NC(=O)c1cc(C(=O)c2ccc(Cl)cc2)c[nH]1,"inconclusive: 3.55 µM [activator, full curve, poor fit]",–
COc1ccc(-c2nc(CSCC(=O)NC3CC3)c(C)o2)cc1OC,–,inconclusive: 10.5% [activator]
Cc1c(C(=O)Nc2ccccc2)sc2ncn(CC(=O)N3CCCCC3)c(=O)c12,inactive,–
CN1CCc2c(sc3nc(NN)n(Cc4ccccc4)c(=O)c23)C1,"inconclusive: 5.01 µM [activator, single point]",–
COCc1cc(C)nc(SCC[N+](C)(C)CC(=O)Nc2cccc(C(F)(F)F)c2)c1C#N,inactive,–
O=C(Cc1cccc2ccccc12)NC(=S)Nc1cccc(C(=O)O)c1,inactive,–
O=C(Nc1ccncc1)C1CCN(S(=O)(=O)c2ccc(Cl)c(C(F)(F)F)c2)CC1,"inconclusive: 5.01 µM [activator, single point]",–
O=C(c1cc2cc(Cl)ccc2oc1=O)N1CCN(c2ccccn2)CC1,"inconclusive: 5.01 µM [activator, single point]",–
CCc1c(C)nc2cc(-c3ccc(OC)c(OC)c3)nn2c1N1CCCC1,"inconclusive: 11.2 µM [activator, partial curve, poor fit]",–
COc1ccc(C2NC(=O)c3ccccc3O2)cc1 (stereo not given),"inconclusive: 28.2 µM [activator, single point]",–
CCOC(=O)c1c(N=CN(C)C)c(C#N)c2n1CCCC2,"inconclusive: 0.355 µM [activator, full curve, poor fit]",–

# A different layout for some results above.
Compound	Potency	activation
c1ccc(-c2noc(-c3ccc4c(c3)OCO4)n2)cc1	inconclusive: 3.55 µM [activator, single point]	–
CCOc1ccc(CCNC(=O)C2CC(=O)N(C3CCCC3)C2)cc1OCC (stereo not given)	inactive	–
O=C(COc1cc2oc(=O)c3c(c2cc1Cl)CCC3)Nc1ccc(CN2CCOCC2)cc1	–	inconclusive: 38.5% [activator]
